No constants are given. Whether binding was seen depends on the method and setting. Some binding calls cover weakened binding; strength is not graded here. Sequences can lack the tags named with a protein.
Target: human DC-SIGN (human) (UniProt Q9NNX6)
Assay: flow cytometry on cells; soluble ligand or IgG1 glycoform (10 μg/ml) on transfected HEK Freestyle cells, 37 °C, one hour; 20 mM HEPES, 1 mM CaCl2, 1 mM MgCl2, 1% BSA, pH 7.4; detection by label or labelled secondary reagent; only the binder purified

Protein sequences, listed by entry. Tags and fused reporters are not part of them.
UniProt Q9NNX6: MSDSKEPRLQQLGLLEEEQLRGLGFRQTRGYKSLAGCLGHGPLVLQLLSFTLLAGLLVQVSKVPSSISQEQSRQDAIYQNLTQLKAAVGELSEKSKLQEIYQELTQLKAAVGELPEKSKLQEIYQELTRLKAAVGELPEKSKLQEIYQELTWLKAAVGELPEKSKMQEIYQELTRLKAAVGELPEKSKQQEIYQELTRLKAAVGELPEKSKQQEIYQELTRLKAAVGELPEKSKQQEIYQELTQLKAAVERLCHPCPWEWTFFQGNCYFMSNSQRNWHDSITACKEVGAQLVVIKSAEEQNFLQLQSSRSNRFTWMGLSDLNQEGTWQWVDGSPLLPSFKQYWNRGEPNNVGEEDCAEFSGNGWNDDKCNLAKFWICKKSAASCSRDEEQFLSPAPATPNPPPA

B1: recombinant His-tagged human ICAM-3 (ligand, UniProt P32942 30-485)
chain: QEFLLRVEPQNPVLSAGGSLFVNCSTDCPSSEKIALETSLSKELVASGMGWAAFNLSNVTGNSRILCSVYCNGSQITGSSNITVYRLPERVELAPLPPWQPVGQNFTLRCQVEDGSPRTSLTVVLLRWEEELSRQPAVEEPAEVTATVLASRDDHGAPFSCRTELDMQPQGLGLFVNTSAPRQLRTFVLPVTPPRLVAPRFLEVETSWPVDCTLDGLFPASEAQVYLALGDQMLNATVMNHGDTLTATATATARADQEGAREIVCNVTLGGERREARENLTVFSFLGPIVNLSEPTAHEGSTVTVSCMAGARVQVTLDGVPAAAPGQPAQLQLNATESDDGRSFFCSATLEVDGEFLHRNSSVQLRVLYGPKIDRATCPQHLKWKDKTRHVLQCQARGNPYPELRCLKEGSSREVPVGIPFFVNVTHNGTYQCQASSSRGKYTLVVVMDIEAGSSH
- binding: binds

Source: publication PMC6620288
